Data: PubChem BioAssay AID588497 (NMMLSC, 2011)
The whole screen tested about 360,000 compounds, of which about 780 (0.22%) were called active. This list was built around the results that the source calls inconclusive (neither active nor inactive); the mix of calls is not that of the screen. Cut-off read from the data, not from the text of the source: active = inhibition above about 35% (passing the limit was not always enough); inconclusive = no clear call, values can overlap the other calls.

Tested on: Botulinum neurotoxin type F light chain protease (Clostridium botulinum)
Test: BoNT/F light chain protease inhibitors, primary screen, biochemical, flow cytometry, MLPCN library (AID 588497); note: plate controls were buffer without enzyme for full effect and enzyme alone for no effect
Settings: Multiplex microsphere protease cleavage assay, at 10 µM, hits give high values

Row | SMILES | inhibition
1 | C[C@H](NC(=O)C1CCN(S(=O)(=O)c2ccccc2)CC1)C(=O)NCc1ccncc1 | inactive: -4.6%
2 | Cc1ccc(S(=O)(=O)/C(C#N)=C/c2c(N3CCOCC3)nc3ccccn3c2=O)cc1 | inconclusive: 6.8%
3 | CCC(=O)Nc1cccc(-c2nc3ccccc3o2)c1 | inconclusive: 10.2%
4 | Oc1ccccc1Cn1nnc2ccccc21 | inconclusive: -14.8%
5 | COc1ccc(C(O)Cn2cc([N+](=O)[O-])nc2C)cc1 (centres undefined) | inconclusive: -3.8%
6 | Cc1cc(C)n2nc(C(=O)N/N=C/c3cn(C)nc3C)nc2n1 | inconclusive: 78.8%
7 | CCOC(=O)c1cc(NC(=O)c2cccnc2)ccn1 | inconclusive: -27.1%
8 | COC(=O)c1ccccc1Nc1ccccc1 | inactive: -9.8%
9 | Clc1ccc(Nc2ccccc2)nn1 | inconclusive: -0.6%
10 | Cn1c(SCC(=O)c2ccccc2)nnc1-c1ccncc1 | inactive: -0.7%
11 | COC(=O)[C@H](Cc1ccccc1)NC(=O)N(C)Cc1ccccc1 | inconclusive: -126%
12 | O=C(COc1ccc(S(=O)(=O)N2CCOCC2)cc1)NCCc1ccccc1 | inconclusive: 0.2%
13 | N/C(=N\O)c1ccc(Cl)cc1Cl | inconclusive: -144%
14 | CCOc1ccc(N2C(=O)C3CCCN3C2=O)cc1 (centres undefined) | inconclusive: 15.7%
15 | COc1cc(/C=N/Nc2ccc([N+](=O)[O-])cn2)cc(OC)c1O | inconclusive: -1.6%
16 | Cc1ccc(Cn2c(CN3CCOCC3)nc3c2c(=O)[nH]c(=O)n3C)cc1 | inactive: 1.7%
17 | CC(=O)c1ccc(-n2c(C)c(C(C)=O)c3cc(O)ccc32)cc1 | inconclusive: 16.7%
18 | Cc1sc2nc3c4ccccc4c(NCc4ccco4)nn3c(=O)c2c1C | inactive: 2.5%
19 | CCCOC(=O)Cc1c(O)c2ccccc2[nH]c1=O | inconclusive: -21.6%
20 | O=C(CN1CCCC1)OCCCC1CCCCC1 | inconclusive: -1.6%
21 | C/C(=C\COc1cc(=O)[nH]c2ccccc12)CCC(O)C(C)(C)O (centres undefined) | inactive: 1.8%
22 | COc1ccc(N(CC(=O)NC2CCCC2)C(=O)Cn2nnc(-c3ccc(OC)c(OC)c3)n2)c(OC)c1 | inactive: 28.3%
23 | CCOC(=O)c1cnc2ccc(OC)cc2c1Nc1ccc(N2CCN(C)CC2)cc1 | inconclusive: -15%
24 | COc1cc(OC)cc(-c2nc3cc(C)ccc3o2)c1 | inactive: -2.3%

Row | SMILES | inhibition
25 | COCc1c(C#N)c(NCc2cc(OC)c(OC)c(OC)c2)nc(C)c1[N+](=O)[O-] | inconclusive: 11.4%
26 | O=C1C2C(C(=O)N1CCN1CCN(Cc3ccc([N+](=O)[O-])cc3)CC1)[C@H]1C=C[C@@H]2C1 (some centres undefined) | inconclusive: -6.5%
27 | CCN(CC)S(=O)(=O)c1cc(NC(=O)C(C)N2CCc3ccccc32)ccc1C (centres undefined) | inconclusive: -17.5%
28 | Cc1ccc(Nc2ncnc3c2cnn3C)c(C)c1 | inconclusive: -11.2%
29 | Cc1ccccc1NC(=S)NC(=O)/C=C/c1ccco1 | inconclusive: -38%
30 | Cc1ccccc1CN(c1ccc(C(N)=O)cc1)S(C)(=O)=O | inactive: -1.7%
31 | COc1ccc(CNc2ncc(-c3ccc(F)cc3)n2C)cc1OC | inconclusive: 2.1%
32 | Cc1ccc2c(c1)c1c3n2CCN(CC#N)C3CCC1 (centres undefined) | inconclusive: -14.7%
33 | CCOC(=O)N1CCN(C(=O)CSCc2nc(-c3ccccc3C)oc2C)CC1 | inactive: -2.6%
34 | CCOc1ccc(-c2c[n+](=O)c3c(n2[O-])CCCC3)c(OCC)c1 | inactive: -5.7%
35 | O=C(c1ccc(Cl)cc1)N1CCCC(C(=O)N2CCc3ccccc3C2)C1 (centres undefined) | inconclusive: 82%
36 | O=C(Nc1ccccc1)N1CCC(O)(c2cccc(C(F)(F)F)c2)CC1 | inconclusive: 15.3%
37 | CCOC(=O)c1ccc(N2CCOCC2)c(NC(=O)COCC(=O)O)c1 | inconclusive: -26.6%
38 | O=C(Nc1ccccc1)c1n[nH]c(Cn2cncn2)n1 | inactive: -0.8%
39 | Cn1c(SCC(=O)NC2CCS(=O)(=O)C2)nc2ccccc21 (centres undefined) | inactive: 9.8%
40 | Cc1ccc(-c2nnc(N3CCN(C(=O)c4cccs4)CC3)c3ccccc23)cc1 | inconclusive: -40.4%
41 | Cn1c(N)c(C(=O)Nc2c(Cl)cccc2Cl)sc1=S | inconclusive: 70.5%
42 | CCOC(=O)c1oc2cccc(O)c2c1C | inactive: -6%
43 | Cc1ccc(S(=O)(=O)N(C)Cc2nc(-c3ccccn3)no2)cc1 | inconclusive: -3.3%
44 | O=C1C=C(c2ccc(CO)cc2)C[C@@H](c2ccc(F)cc2)C1 | inactive: -5.3%
45 | COc1ccc(C(=O)NCCNc2nc3c(C)cccc3cc2C#N)cc1OC | inconclusive: -55.4%
46 | O=C(COC(=O)C1CCC1)NCc1ccc(Cl)cc1Cl | inconclusive: 8.8%
47 | Cc1cc(-c2nc3ccccc3o2)c2ccccc2n1 | inconclusive: -4.2%
48 | COc1cc(S(=O)(=O)NCc2ccc3c(c2)OCO3)ccc1F | inconclusive: 6.4%

Looked up above.
Entry for Cc1ccccc1CN(c1ccc(C(N)=O)cc1)S(C)(=O)=O under inhibition: inactive: -1.7%
Entry for Cc1ccc(-c2nnc(N3CCN(C(=O)c4cccs4)CC3)c3ccccc23)cc1 under inhibition: inconclusive: -40.4%
Entry for Cc1ccc(Nc2ncnc3c2cnn3C)c(C)c1 under inhibition: inconclusive: -11.2%
Entry for Cc1ccc(S(=O)(=O)N(C)Cc2nc(-c3ccccn3)no2)cc1 under inhibition: inconclusive: -3.3%

(next part)

Row | SMILES | inhibition
49 | O=C(NNC(=O)c1ccc[nH]1)Nc1cc(Cl)cc(Cl)c1 | inconclusive: 17.8%
50 | COc1cccc(CNC(=O)c2cc3c(cc2Cl)N2CCCCCC2=NS3(=O)=O)c1 | inconclusive: 11.3%
51 | COc1cccc2cc(C(=O)N3CCCCCCC3)c(=O)oc12 | inconclusive: -64%
52 | C=COC(=O)c1sc2nc(C)cc(C)c2c1N | inconclusive: 37.8%
53 | O=C(c1ccc(Cl)cc1)c1oc2ccccc2c1CS(=O)(=O)c1ccccc1 | inactive: 0.6%
54 | C=CCNc1nc(N)c([N+](=O)[O-])c(N2CCCCCC2)n1 | inconclusive: -16%
55 | CCCCNS(=O)(=O)c1cc2c3c(c1)CCN3C(=O)CC2 | inactive: -1.8%
56 | O=C(NCCc1ccccc1)C1CCCN1C(=O)Nc1cccc(Cl)c1 (centres undefined) | inconclusive: 2.3%
57 | COc1ccc(-n2c(O)c(C(C)=NCc3ccc4c(c3)OCO4)c(=O)[nH]c2=O)cc1 | inconclusive: 56%
58 | COc1ccc(F)cc1S(=O)(=O)N1CCN(c2ccccn2)CC1 | inconclusive: 31.2%
59 | CC(=O)Nc1ccc(S(=O)(=O)N2CCSC2)cc1 | inconclusive: 23.7%
60 | O=C(CN1C(=O)COc2ccccc21)NCCCN1CCCC1 | inactive: -2%
61 | CCC(C)(CC(=O)O)CC(=O)Nc1cc(C(F)(F)F)cc(C(F)(F)F)c1 (centres undefined) | inconclusive: -180%
62 | Cc1occc1C(=O)N1CCCC(CO)(Cc2ccc(F)cc2F)C1 (centres undefined) | inactive: 8.9%
63 | CC(C)(C)c1nc2ccccc2[nH]1 | inconclusive: -56.3%
64 | CSc1nc2c(c(=O)[nH]c(=O)n2C)n1Cc1ccccc1Cl | inconclusive: -11.8%
65 | Cc1c(NC(=O)C(C)OC(=O)c2cc(Cl)ccc2O)c(=O)n(-c2ccccc2)n1C (centres undefined) | inactive: -0.3%
66 | OC1(CNCc2ccccc2)C2CC3CC(C2)CC1C3 (centres undefined) | inconclusive: -13.2%
67 | CCOC(=O)C(C)n1cnc2scc(-c3ccc(C)cc3)c2c1=O (centres undefined) | inconclusive: 37.5%
68 | COc1ccc(OC)c(NC(=O)C(CCSC)NS(=O)(=O)c2cccs2)c1 (centres undefined) | inactive: 2.4%
69 | O=C(CN1CCCCC1)Nc1scc2c1c(=O)oc1ccccc12 | inconclusive: 3.6%
70 | COC(=O)C(C)Oc1ccc(-c2nccc(-c3ccccn3)n2)cc1 (centres undefined) | inactive: 18.7%
71 | NC(=O)Cn1cc(/C=N\NS(=O)(=O)c2ccc(Cl)cc2)c2ccccc21 | inactive: -8.7%
72 | [O-][n+]1c2ccccc2cc2ccccc21 | inactive: -4.9%

Row | SMILES | inhibition
73 | CCCn1nc(NC(=O)C2CCCO2)c2cc3ccc(C)cc3nc21 (centres undefined) | inconclusive: 25.9%
74 | COCCCNS(=O)(=O)c1ccc(S(=O)(=O)N2CCCC2)cc1 | inconclusive: -20.5%
75 | S=c1nc(-c2sccc2OCc2ccc(Cl)cc2Cl)[nH][nH]1 | inactive: 2.9%
76 | COc1ccc2nc(COC(=O)c3cccs3)c(C(C)=O)[n+]([O-])c2c1 | inconclusive: -42.3%
77 | CCCc1cc(=O)n2[nH]c(-c3cc(OC)c(OC)c(OC)c3)nc2n1 | inconclusive: 14.3%
78 | CCOc1ccc(CNC(=O)CCCn2ccc3cc(S(=O)(=O)N4CCCC4)ccc32)cc1 | inactive: -4.8%
79 | NS(=O)(=O)c1ccc(CCNC(=O)C2COc3ccccc3O2)cc1 (centres undefined) | inconclusive: -5.8%
80 | Cc1ccc(CSc2ncnc3onc(C)c23)cc1 | inconclusive: -117%
81 | Cc1nc(NCCc2ccc(F)cc2)c2nnn(Cc3ccccc3)c2n1 | inconclusive: 12.4%
82 | COc1ccccc1CNC(=O)C1CCN(Cc2nc(-c3cccc(Cl)c3)oc2C)CC1 | inactive: -4.5%
83 | Cc1cc(C)c(S(=O)(=O)NCCCn2ccnc2)c(C)c1 | inactive: 0.2%
84 | Cn1c(SCC(=O)Nc2nc3c(s2)CCCC3)nnc1-c1ccccc1 | inactive: -1.7%
85 | OC(c1cccc(Cl)c1)c1ncc(-c2ccccc2Cl)[nH]1 (centres undefined) | inactive: -0.3%
86 | C=CCN(c1ccccc1)S(=O)(=O)c1cccc(C(=O)NC2CCC(O)CC2)c1 (centres undefined) | inconclusive: -0.6%
87 | COc1ccccc1N1C(=O)CC(N2CCN(c3ccc(F)cc3)CC2)C1=O (centres undefined) | active: 40.5%
88 | CC(C)C1=CC(=Nc2ccc(S(N)(=O)=O)cc2)C=C(C(C)C)C1=O | inconclusive: -9.3%
89 | CCOC(=O)C1=C(CNCCc2ccc(Cl)cc2)NC(=O)NC1c1ccc2c(c1)OCO2 (centres undefined) | inconclusive: -21%
90 | O=C(Nc1ccc(Cl)cn1)c1cccc2c(Br)cccc12 | inconclusive: 13.8%
91 | CN(C)CC(=O)Nc1cc(C(F)(F)F)ccc1Cl | inactive: -1.4%
92 | COC(=O)CC(NS(=O)(=O)c1cccs1)c1ccc2c(c1)OCO2 (centres undefined) | inactive: -5.4%
93 | COc1ccc(-c2nn(-c3ccccc3)cc2C(=O)N(C)C)cc1 | inactive: -0.5%
94 | CCn1nc(C)c(C(=O)Nc2cc(Oc3cc(C)cc(C)c3)cc([N+](=O)[O-])c2)c1C | inactive: 0.9%
